Data as given in PubChem BioAssay AID504786 (Drosophila RNAi Screening Center, 2011).

Purpose: 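Fly genes required for HIF-dependent transcription when hypoxia is mimicked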 (primary screen)
Cells: Drosophila S2 cells with a stable HIF luciferase reporter
Knock-down reagent: long dsRNA against Drosophila genes, about 0.2 µg dsRNA per well of a 384-well plate
Time to read-out: three days of knock-down, then 20 h of DFO before reading
Conditions: desferrioxamine (DFO) at 100 µM, an iron chelator that mimics hypoxia, for 20 h
Read-out: 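Firefly luciferase driven by the mouse ldh-a hypoxia-response element, measured after 20 h of 100 µM DFO; z-scores per plate, higher means more signal lost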
Reading the numbers: z-score: higher = stronger loss of HIF reporter signal
The deposit covers about 21,000 reagents; this is a random part of those that have a named target and a result. 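Primary screen; positive scores mean lost reporter signal, so the sign may be inverted from the usual convention.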 A plus sign joins genes that one reagent is predicted to hit.

Knock-down of Nt5b [DRSC19976] resulted in: z-score, replicate 1 = 0; z-score, replicate 2 = 0.3.
Against Nt5b [DRSC19977], the entry reads z-score, replicate 1 = -0.3; z-score, replicate 2 = -0.5.
Nt5b [DRSC19978] gave z-score, replicate 1 = -0.2; z-score, replicate 2 = 0.7.
Against Fuca [DRSC10591] the deposit lists z-score, replicate 1 = -0.2; z-score, replicate 2 = -0.9.
CG11584 [DRSC19408] showed z-score, replicate 1 = -0.3; z-score, replicate 2 = 0.1.
Against CG42306 + Gint3 [DRSC06934], the values are z-score, replicate 1 = -0.2; z-score, replicate 2 = -0.4.
After knock-down of hd [DRSC12316], the screen gave z-score, replicate 1 = -0.2; z-score, replicate 2 = -0.1.
Knock-down of CG12641 (retired record) [DRSC17848] came out at: z-score, replicate 1 = 1.8; z-score, replicate 2 = 2.2.
With knock-down of Dredd [DRSC18461] the results were z-score, replicate 1 = -0.2; z-score, replicate 2 = -0.3.
AP-1gamma [DRSC18433] gave z-score, replicate 1 = 0.3; z-score, replicate 2 = 0.3.
With knock-down of PIG-L [DRSC15577], the record shows z-score, replicate 1 = 1; z-score, replicate 2 = 0.3.
After knock-down of CG2767 [DRSC15451] the results were z-score, replicate 1 = -0.3; z-score, replicate 2 = -0.2.
Silencing of Pdss2 [DRSC11625] resulted in: z-score, replicate 1 = -0.3; z-score, replicate 2 = -0.3.
After knock-down of S-Lap4 [DRSC10957] the results were z-score, replicate 1 = -0.3; z-score, replicate 2 = -0.4.
CG17168 [DRSC20904] showed z-score, replicate 1 = 1.8; z-score, replicate 2 = 1.8.
With knock-down of CG1486 [DRSC20508] the results were z-score, replicate 1 = -0.2; z-score, replicate 2 = -0.6.
With knock-down of Prp4k [DRSC08144], the record shows z-score, replicate 1 = -0.3; z-score, replicate 2 = -0.7.
Knock-down of CG18735 [DRSC04312] gave: z-score, replicate 1 = -0.3; z-score, replicate 2 = -0.4.
With knock-down of CG2930 [DRSC17730], the screen gave z-score, replicate 1 = -0.2; z-score, replicate 2 = -0.3.

Ordered by “z-score, replicate 2” (lowest first): 2 of the entries above.
CG42306 + Gint3 [DRSC06934] → z-score, replicate 1: -0.2; z-score, replicate 2: -0.4
CG11584 [DRSC19408] → z-score, replicate 1: -0.3; z-score, replicate 2: 0.1

The results go on:
Depletion of CG9727 [DRSC12585] gave: z-score, replicate 1 = -0.5; z-score, replicate 2 = -0.4.
After knock-down of Blm + CG14721 [DRSC14943] the results were z-score, replicate 1 = -0.1; z-score, replicate 2 = -0.1.
For kst [DRSC08719] the deposit lists z-score, replicate 1 = -0.3; z-score, replicate 2 = -0.6.
For Mettl14 [DRSC03073] the deposit lists z-score, replicate 1 = -0.4; z-score, replicate 2 = -0.5.
Bace [DRSC02197] scored z-score, replicate 1 = -0.6; z-score, replicate 2 = 0.5.
After knock-down of Dll [DRSC04610], the record shows z-score, replicate 1 = 0.2; z-score, replicate 2 = 0.3.
Pask [DRSC04337] gave z-score, replicate 1 = -0.2; z-score, replicate 2 = -0.6.
vri [DRSC03633] gave z-score, replicate 1 = 4.6; z-score, replicate 2 = 0.6.
For CG33090 [DRSC01908], the values are z-score, replicate 1 = 0; z-score, replicate 2 = -0.2.
Spec2 (retired record) [DRSC12258] showed z-score, replicate 1 = -0.4; z-score, replicate 2 = -0.6.
Leash [DRSC15617] scored z-score, replicate 1 = -0.4; z-score, replicate 2 = -0.6.
Silencing of CG33080 [DRSC18080] resulted in: z-score, replicate 1 = -0.2; z-score, replicate 2 = -0.5.
With knock-down of CG33080 [DRSC18081], the screen gave z-score, replicate 1 = -0.2; z-score, replicate 2 = -0.6.
Against CG33080 [DRSC18285], the values are z-score, replicate 1 = -0.2; z-score, replicate 2 = 0.
With knock-down of Pgm2a [DRSC07068], the record shows z-score, replicate 1 = -0.4; z-score, replicate 2 = -0.5.
After knock-down of CG4325 [DRSC18516], the screen gave z-score, replicate 1 = 4.3; z-score, replicate 2 = 3.7.
For CheB93a [DRSC15044], the entry reads z-score, replicate 1 = 0.2; z-score, replicate 2 = -0.7.
slbo [DRSC04716] scored z-score, replicate 1 = -0.2; z-score, replicate 2 = -0.3.
After knock-down of CG15370 [DRSC18042], the screen gave z-score, replicate 1 = -0.2; z-score, replicate 2 = 0.2.
CG7694 [DRSC16288] showed z-score, replicate 1 = -1; z-score, replicate 2 = -0.4.
Depletion of CG3748 [DRSC02716] came out at: z-score, replicate 1 = -0.2; z-score, replicate 2 = -0.1.
CG6293 [DRSC16011] gave z-score, replicate 1 = -0.3; z-score, replicate 2 = -0.7.
With knock-down of CG4829 [DRSC19920] the results were z-score, replicate 1 = -0.3; z-score, replicate 2 = -0.1.
With knock-down of Sgt1 [DRSC16519], the record shows z-score, replicate 1 = 0; z-score, replicate 2 = 0.9.
With knock-down of mtg [DRSC16256], the screen gave z-score, replicate 1 = -0.3; z-score, replicate 2 = -0.2.
Depletion of inv [DRSC07633] gave: z-score, replicate 1 = 0; z-score, replicate 2 = 0.
Silencing of CG12880 [DRSC14568] resulted in: z-score, replicate 1 = -0.2; z-score, replicate 2 = 2.6.
After knock-down of CG34150 [DRSC13689], the record shows z-score, replicate 1 = -0.3; z-score, replicate 2 = -0.3.
Against CG11438 [DRSC11660] the deposit lists z-score, replicate 1 = -0.3; z-score, replicate 2 = -0.3.
Against CG2680 [DRSC18466], the values are z-score, replicate 1 = -0.1; z-score, replicate 2 = -0.7.
After knock-down of CG6083 [DRSC10580], the screen gave z-score, replicate 1 = -0.2; z-score, replicate 2 = -0.2.
With knock-down of MFS10 [DRSC19888], the record shows z-score, replicate 1 = -0.3; z-score, replicate 2 = -0.5.
